Consider 1 molecule from patent US20230054895A1, “METHODS FOR INDUCING BIOSTASIS IN A CELL, TISSUE OR ORGAN” (PRESIDENT AND FELLOWS OF HARVARD COLLEGE, priority 2020, published 2023).

The assay concerns Xenopus tadpoles. Description: Oxygen consumption of Xenopus tadpoles and embryos. The assay is classed as in vivo, Xenopus laevis. The text has this: Dynamic drug dosing used to examine stasis control parameters (10 tadpoles/chamber, n=3 replicates).
The oxygen consumption assay described herein above was used.

Entries after “also recorded” stand apart in the source; their conditions may differ.

As for `COc1cc2c(cc1OC)C(=O)C(CC1CCN(Cc3ccccc3)CC1)C2` (centres unmarked) [Donepezil, 2-((1-Benzylpiperidin-4-yl)methyl)-5,6-dimethoxy-2,3-dihydro-1H-inden-1-one], the oxygen consumption entry is, setting by setting: (compared to 1×Tricaine anesthetic control) “markedly reduced oxygen consumption; also recorded: reduced oxygen consumption in Xenopus tadpoles greater than treatment with 1×Tricaine”; (compared to vehicle control) “markedly reduced oxygen consumption”.
